Where two headings read alike, the source gives them in different places.
Assays:
Test in all cases: cells
Conditions in all cases: Homo sapiens, read-out: IC50 of PCP
AsPC-1 cells = test system: AsPC-1 cells
BxPC-3 cells = test system: BxPC-3 cells
PANC-1 cells = test system: PANC-1 cells

IC50 (AsPC-1 cells; ASPC1, 24 h): > 20 µM | IC50 (AsPC-1 cells; ASPC1, 48 h): > 20 µM | IC50 (AsPC-1 cells; ASPC1, 72 h): 19.9 ± 1.1 µM | IC50 (BxPC-3 cells; BXPC-3, 24 h): > 20 µM | IC50 (BxPC-3 cells; BXPC-3, 48 h): 17.9 ± 2.1 µM | IC50 (PANC-1 cells; PANC-1, 24 h): > 20 µM | IC50 (PANC-1 cells; PANC-1, 48 h): > 20 µM | IC50 (PANC-1 cells; PANC-1, 72 h): 15.4 ± 0.8 µM
Structure (SMILES): CN1CCN(CCCN2c3ccccc3Sc3ccc(Cl)cc32)CC1 [PCP, Prochlorperazine]

— patent US20250044294A1, “COMPOSITION AND METHOD OF TREATING A CANCER THROUGH AFFECTING MEMBRANE RECEPTORS OF CANCER CELLS AND THEIR DERIVED EXTRACELLULAR VESICLES” (National Yang Ming Chiao Tung University, priority 2023, published 2025)
